Test results reported in patent US20080241125A1 (Dana-Farber, published 2008).
These are yes or no findings as the source states them, for the method shown. Binding seen in cells or lysates may run through a third protein. Some results given as binding are weak or reduced against the parent protein; the word gives no strength.

Amino acid sequences for entries named in this document (tags omitted). A change or cut given only in a name is not applied to a line headed by its entry.
UniProt Q9Y6K9: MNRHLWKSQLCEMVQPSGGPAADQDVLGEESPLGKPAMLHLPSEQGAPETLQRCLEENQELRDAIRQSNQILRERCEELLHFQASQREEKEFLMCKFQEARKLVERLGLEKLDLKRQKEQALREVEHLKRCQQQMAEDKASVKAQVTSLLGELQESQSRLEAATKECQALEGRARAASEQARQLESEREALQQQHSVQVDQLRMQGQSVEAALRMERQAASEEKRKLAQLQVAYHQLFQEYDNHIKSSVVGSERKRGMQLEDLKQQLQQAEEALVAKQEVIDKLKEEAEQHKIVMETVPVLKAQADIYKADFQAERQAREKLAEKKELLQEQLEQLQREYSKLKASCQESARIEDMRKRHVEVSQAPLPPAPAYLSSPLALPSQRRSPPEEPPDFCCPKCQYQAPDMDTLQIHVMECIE
UniProt P15941: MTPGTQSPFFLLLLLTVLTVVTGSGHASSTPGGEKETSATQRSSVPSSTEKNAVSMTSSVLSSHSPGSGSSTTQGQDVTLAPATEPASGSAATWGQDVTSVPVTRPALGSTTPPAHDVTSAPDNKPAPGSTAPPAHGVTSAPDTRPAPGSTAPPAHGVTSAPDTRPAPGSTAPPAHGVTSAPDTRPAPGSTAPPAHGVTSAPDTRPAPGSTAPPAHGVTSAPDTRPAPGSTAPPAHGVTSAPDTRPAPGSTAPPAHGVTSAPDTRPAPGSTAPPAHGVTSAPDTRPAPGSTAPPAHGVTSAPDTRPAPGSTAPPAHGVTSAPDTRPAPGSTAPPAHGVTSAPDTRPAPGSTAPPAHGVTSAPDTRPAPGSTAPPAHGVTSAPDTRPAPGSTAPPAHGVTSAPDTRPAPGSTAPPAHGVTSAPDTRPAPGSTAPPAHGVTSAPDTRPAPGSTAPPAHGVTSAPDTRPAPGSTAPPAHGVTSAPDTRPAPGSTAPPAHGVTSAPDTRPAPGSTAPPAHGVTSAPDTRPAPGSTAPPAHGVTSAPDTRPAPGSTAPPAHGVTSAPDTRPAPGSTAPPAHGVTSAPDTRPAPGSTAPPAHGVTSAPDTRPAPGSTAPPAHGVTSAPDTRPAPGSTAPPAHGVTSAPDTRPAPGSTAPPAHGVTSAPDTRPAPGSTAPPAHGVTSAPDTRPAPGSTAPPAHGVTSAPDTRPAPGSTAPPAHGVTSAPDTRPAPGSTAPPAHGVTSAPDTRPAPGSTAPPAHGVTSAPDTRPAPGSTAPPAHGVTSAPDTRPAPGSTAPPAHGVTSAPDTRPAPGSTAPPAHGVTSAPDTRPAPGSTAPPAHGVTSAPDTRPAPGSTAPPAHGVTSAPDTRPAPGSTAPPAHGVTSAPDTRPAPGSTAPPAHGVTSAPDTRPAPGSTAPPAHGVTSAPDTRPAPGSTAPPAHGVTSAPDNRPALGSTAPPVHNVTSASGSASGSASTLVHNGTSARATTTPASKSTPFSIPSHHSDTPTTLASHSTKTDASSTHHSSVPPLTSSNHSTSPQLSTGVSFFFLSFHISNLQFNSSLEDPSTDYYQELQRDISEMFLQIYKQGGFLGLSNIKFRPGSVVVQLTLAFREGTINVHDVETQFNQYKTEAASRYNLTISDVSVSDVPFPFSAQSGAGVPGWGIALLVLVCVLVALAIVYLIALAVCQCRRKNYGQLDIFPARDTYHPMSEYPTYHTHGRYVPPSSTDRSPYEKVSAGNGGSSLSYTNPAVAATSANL

How the values were obtained:
[1] = target: T1, purified IKKγ (human, UniProt Q9Y6K9 1-419, limits assumed); experiment: GST pull-down: GST-MUC1-CD (wild-type reference) on glutathione beads with IKKγ, anti-IKKγ immunoblot (FIG. 11B)
T1 construct: also called NEMO

[2] = target: GST-IKKγ (human) (UniProt Q9Y6K9); experiment: GST pull-down: GST-IKKγ on glutathione beads with purified MUC1-CD, anti-MUC1-C immunoblot (FIG. 5B)
[3] = target: GST-IKKγ (human) (UniProt Q9Y6K9); experiment: GST pull-down: GST-IKKγ on glutathione beads with purified MUC1-CD, anti-MUC1-C immunoblot (legend of FIG. 5B)
[4] = target: GST-IKKγ(197-419) (human) (UniProt Q9Y6K9); experiment: GST pull-down: GST-IKKγ fusion proteins on glutathione beads with MUC1-CD, anti-MUC1-C immunoblot (FIG. 5D)

## GST-MUC1-CD (glutathione S-transferase fused to the MUC1-CD polypeptide) (from UniProt P15941 1184-1255)
[1]
  binding: binds

## MUC1 cytoplasmic domain (MUC1-CD), purified, GST moiety removed with thrombin (from UniProt P15941 1184-1255)
[2]
  binding: binds
[3]
  binding: binds
[4]
  binding: binds
